Drawing on doi:10.1101/2023.11.20.567784, this text covers binding for one substance.

The chains behind the UniProt entries cited, without tags or fusion partners. Where a name states a change or a piece, a line headed by the entry shows the natural chain unless it says otherwise.
UniProt Q7Z2W4: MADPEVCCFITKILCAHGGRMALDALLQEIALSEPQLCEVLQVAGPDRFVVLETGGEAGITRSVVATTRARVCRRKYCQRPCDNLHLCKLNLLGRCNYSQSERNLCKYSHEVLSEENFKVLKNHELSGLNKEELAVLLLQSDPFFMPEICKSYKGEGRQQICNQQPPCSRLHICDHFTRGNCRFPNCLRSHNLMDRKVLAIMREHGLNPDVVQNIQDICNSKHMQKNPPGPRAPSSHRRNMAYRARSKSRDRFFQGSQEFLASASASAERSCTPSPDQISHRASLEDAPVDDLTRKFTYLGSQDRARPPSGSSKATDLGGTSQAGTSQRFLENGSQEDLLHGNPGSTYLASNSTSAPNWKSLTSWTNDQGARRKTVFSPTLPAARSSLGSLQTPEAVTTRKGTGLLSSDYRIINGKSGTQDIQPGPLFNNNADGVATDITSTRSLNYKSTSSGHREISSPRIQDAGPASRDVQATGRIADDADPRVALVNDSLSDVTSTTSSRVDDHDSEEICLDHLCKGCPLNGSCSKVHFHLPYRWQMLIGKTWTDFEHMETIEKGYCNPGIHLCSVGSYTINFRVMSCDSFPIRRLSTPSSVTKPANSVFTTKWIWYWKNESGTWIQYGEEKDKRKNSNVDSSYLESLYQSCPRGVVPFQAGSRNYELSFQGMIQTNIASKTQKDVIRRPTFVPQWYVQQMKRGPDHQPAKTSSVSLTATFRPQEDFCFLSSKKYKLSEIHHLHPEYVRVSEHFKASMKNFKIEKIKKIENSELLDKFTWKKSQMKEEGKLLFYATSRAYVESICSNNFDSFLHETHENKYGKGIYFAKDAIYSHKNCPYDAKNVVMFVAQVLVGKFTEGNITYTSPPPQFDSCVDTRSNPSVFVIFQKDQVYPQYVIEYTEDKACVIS
UniProt Q14258: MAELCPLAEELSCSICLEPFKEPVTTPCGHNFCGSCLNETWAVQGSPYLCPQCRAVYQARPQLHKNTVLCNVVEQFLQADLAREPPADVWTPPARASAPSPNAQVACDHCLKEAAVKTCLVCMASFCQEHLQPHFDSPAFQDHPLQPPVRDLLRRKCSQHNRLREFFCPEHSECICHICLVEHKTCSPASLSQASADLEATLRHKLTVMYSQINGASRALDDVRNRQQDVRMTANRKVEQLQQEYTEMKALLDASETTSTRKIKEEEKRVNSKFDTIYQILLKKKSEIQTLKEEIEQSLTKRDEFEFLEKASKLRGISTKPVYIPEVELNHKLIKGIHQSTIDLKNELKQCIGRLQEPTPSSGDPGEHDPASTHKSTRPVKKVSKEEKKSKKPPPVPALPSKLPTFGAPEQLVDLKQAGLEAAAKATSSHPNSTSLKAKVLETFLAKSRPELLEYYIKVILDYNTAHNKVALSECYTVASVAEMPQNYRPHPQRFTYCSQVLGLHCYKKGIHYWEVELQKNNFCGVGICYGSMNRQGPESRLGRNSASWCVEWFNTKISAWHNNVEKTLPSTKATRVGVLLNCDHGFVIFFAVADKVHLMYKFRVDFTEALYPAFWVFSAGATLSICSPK

No constants are given. Whether binding was seen depends on the method and setting. Binding seen in cells or lysates may run through a third protein. Some entries that bind do so weakly or less than the wild type.

Assay [1] deals with 3XFLAG-ZAPL wild-type (zinc finger antiviral protein, long isoform) (human) (UniProt Q7Z2W4). Kind of assay: co-IP; ZAP KO HEK293T co-transfected with 3XFLAG-ZAPL and myc-TRIM25; lysis in FLAG buffer (100mM Tris HCl pH8.0, 150mM NaCl, 5mM EDTA, 5% glycerol, 0.1% NP-40, 1mM DTT); FLAG beads 45 min at 4°C; immunoblot. For orientation: A western blot detects proteins with antibodies after separation by electrophoresis.

Assay [2] concerns the target 3XFLAG-ZAPL N658A (human) (UniProt Q7Z2W4). Described as above.

Take “myc-TRIM25 (tripartite motif containing 25) (from UniProt Q14258 1-630)”: the binding entry in assay [1] and in assay [2] was “binds” each time.
